Some of the results follow.

Chains of the proteins cited; added tags and fusions are not shown.
UniProt Q0JBA9, entry or part of it: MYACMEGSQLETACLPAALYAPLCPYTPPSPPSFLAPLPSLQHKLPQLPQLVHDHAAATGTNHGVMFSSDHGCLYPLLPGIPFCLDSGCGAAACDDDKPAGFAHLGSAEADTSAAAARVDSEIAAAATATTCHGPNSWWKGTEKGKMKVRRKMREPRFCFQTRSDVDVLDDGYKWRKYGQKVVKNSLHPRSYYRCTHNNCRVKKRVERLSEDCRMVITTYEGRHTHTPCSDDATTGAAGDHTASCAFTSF

This test deals with OsWRKY34 (Oryza sativa, UniProt Q0JBA9 1-250). The test is described as follows: protein-binding microarray (RPBM); PBS, 2% BSA, 51.3 ng/ul salmon testes DNA, 50 uM zinc acetate, 200 nM TF, 25 C, 1 h; high values mean tight binding. Conditions: protein: recombinant; tags: N-terminal polyhistidine and DsRed monomer fusion (pET32a); label: CyDye5-dUTP incorporated in the synthesized complementary strand; 3' TTTTT single-stranded linker to array surface; dsDNA, one strand shown. The method, boiled down: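 Transcription factors, each fused N-terminally to a polyhistidine tag and DsRed, were expressed in E. coli BL21-CodonPlus and purified on Ni–NTA. A custom Agilent array was made double-stranded by primer extension with Cy5-dUTP and blocked with 2% BSA. It was incubated with 200 nM protein in PBS, 2% BSA, salmon testes DNA and 50 µM zinc acetate at 25 °C for 1 h, then washed. The binding signal is per-feature fluorescence intensity (arbitrary units) read on an Axon 4000B scanner.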
As for “CCATCCACCATTCACTTTCCCACCTACCTCCACTATTTATCGGAGTCACCTAGTGCAG”, the binding signal is 9720 fluorescence intensity (a.u.). For the sequence “TTTTCCTCGCTGTACTCTTTGCTCTTGCTCGGGCTCCCGCCGGAGTCACCTAGTGCAG”, the binding signal was 11600 fluorescence intensity (a.u.).

Consider “TTTACGCTTTTCTTTTGTGGCTACTTTGTCAATCTTACAACGGAGTCACCTAGTGCAG”, for which the binding signal was 9410 fluorescence intensity (a.u.). The value for “ACCGCTGCATTCTTATCTACACCTATCTCTGCAGAACCTGCGGAGTCACCTAGTGCAG” was 8220 fluorescence intensity (a.u.); that for “TTTTCAATACCTGGGTAGGGGCAGGTAATTGGGAGGGAATCGGAGTCACCTAGTGCAG” was 10400 fluorescence intensity (a.u.); that for “CACTCTGCCCTACCGCCCATCTCATCCCCATCCATCCGGTCGGAGTCACCTAGTGCAG” was 13400 fluorescence intensity (a.u.).

With “CACCTCCTTTCCTTGCCGCCTCCGGGAGGGACTCCAAGAACGGAGTCACCTAGTGCAG”, the binding signal is 8560 fluorescence intensity (a.u.). The value for “CCTCTGTCGTCTCGTCAGTTTGCCCCTGCCCAGTTGCCCACGGAGTCACCTAGTGCAG” was 10900 fluorescence intensity (a.u.); that for “GATTTCTTGGCTATAGTTAATATTTGTTGCTGTAACTAACCGGAGTCACCTAGTGCAG” was 8090 fluorescence intensity (a.u.); that for “ACACACACACACACACACAAAACACAGAGAGAGAGAGAGACGGAGTCACCTAGTGCAG” was 8200 fluorescence intensity (a.u.).

For the sequence “CCCTGCCATCCAGCTCATACATTTCCTATTCAACGGTTGCCGGAGTCACCTAGTGCAG”, the binding signal was 9760 fluorescence intensity (a.u.). For the sequence “CACACCAAACAGCACAATCTCAGTATCGGAATCATCTCACCGGAGTCACCTAGTGCAG”, the binding signal is 8950 fluorescence intensity (a.u.). On to “TTCTCGTTGTCGACGACGCCGAGTCTTTTCATCACGACGCCGGAGTCACCTAGTGCAG”, for which the binding signal is 9280 fluorescence intensity (a.u.). The result for “GTTTAACCAGTGGAGCATTGCTTTATTTCTTCTATATCCACGGAGTCACCTAGTGCAG” reads 10800 fluorescence intensity (a.u.); that for “ATATATATTTCATCCTCACTTAGTTCAGGTTTTTTTTTTCCGGAGTCACCTAGTGCAG”, 8970 fluorescence intensity (a.u.); that for “CTAGACCACATCTCCATCAACTGCACCCGTGGGGTCGGGGCGGAGTCACCTAGTGCAG”, 9130 fluorescence intensity (a.u.). The result for “CTTCTCCTACAAAGTGCCTAGACATCACCACAAATCAACCCGGAGTCACCTAGTGCAG” reads 8390 fluorescence intensity (a.u.); that for “GTATTTGTCGCCAGTCTGATTTTCGCCCATTGATCGCAAACGGAGTCACCTAGTGCAG”, 10000 fluorescence intensity (a.u.). The value for “GTAACTTTACTGTTTTTTTCAGTGTGGAGAAACTGTAACACGGAGTCACCTAGTGCAG” was 8170 fluorescence intensity (a.u.).

In the case of “AGTCATTTTAGTATTTCTTACATTTATATTGATGTTAATGCGGAGTCACCTAGTGCAG”, the binding signal is 8500 fluorescence intensity (a.u.). The value for “ATGCGACTGTCTTCTTTCATAATCTTTTTTTTATTTTGCTCGGAGTCACCTAGTGCAG” was 10800 fluorescence intensity (a.u.). The value for “TTTTTTCATCGTGATTTATTTTACAACATTGGCCTTTATACGGAGTCACCTAGTGCAG” was 9000 fluorescence intensity (a.u.); that for “CTCTTCTCCTTTTCTTCCCTGTCATCTGTGAGCTTTTGCTCGGAGTCACCTAGTGCAG” was 10600 fluorescence intensity (a.u.). The value for “CTTTCCACCTCTATCCGCCTTCCAGCTACTGTTGCAACTGCGGAGTCACCTAGTGCAG” was 11400 fluorescence intensity (a.u.). Turning to “GGCTTCCTCTCTTCTGCGGCCGCGCGCGATCTCCACACCTCGGAGTCACCTAGTGCAG”, the binding signal was 8040 fluorescence intensity (a.u.). The value for “GTTTTTATCTCTTATTATCTGTGCTTTCCCGTTTTAATATCGGAGTCACCTAGTGCAG” was 11200 fluorescence intensity (a.u.). The value for “TGGGACAAACTTTGACCAATACTTATTCTTTCATGGTATACGGAGTCACCTAGTGCAG” was 8410 fluorescence intensity (a.u.). The result for “CTTCTTTTCGTTTTTCCTCGTTTTCTTTTCTCTCCATCATCGGAGTCACCTAGTGCAG” reads 8090 fluorescence intensity (a.u.). “CCCACTCTCCACTCTCCACTCCACTCGCTCTCCGTTCACCCGGAGTCACCTAGTGCAG”: the binding signal is 10200 fluorescence intensity (a.u.). The value for “CGTCTCACACCCTACCCTGACCGTCCGATCGGATCAACCACGGAGTCACCTAGTGCAG” was 9430 fluorescence intensity (a.u.); that for “CTCTTTTTTTGTTTTAACATTGAACACACTACTTTACAGCCGGAGTCACCTAGTGCAG” was 9180 fluorescence intensity (a.u.); that for “CATGTCACTATACTATTATATCCTATTATATCCTATAATACGGAGTCACCTAGTGCAG” was 8100 fluorescence intensity (a.u.). The value for “TGGTGTGGCGATCCTGTGGAGTGTGGTTTGGTTTGGGAGGCGGAGTCACCTAGTGCAG” was 9210 fluorescence intensity (a.u.); that for “CTACGTCCAGCAGTCCGTCCATCCGTGCTACCTCATCATACGGAGTCACCTAGTGCAG” was 8930 fluorescence intensity (a.u.). Regarding “AATCACCAATTCGACATGGGCACAGAGCTCTCGTTGACTTCGGAGTCACCTAGTGCAG”, the binding signal is 11400 fluorescence intensity (a.u.). The result for “CCAAGCTCCACATATATACTTCTGGTCAGCACCACTTTGACGGAGTCACCTAGTGCAG” reads 9690 fluorescence intensity (a.u.); that for “GCCACATATTTCCAACCCTTCATTTAATTCAGGTGTCATTCGGAGTCACCTAGTGCAG”, 10200 fluorescence intensity (a.u.).

For “TTTTCTCTGTATCTTTTTTCTCCCTTGTTAATGATCTTTTCGGAGTCACCTAGTGCAG”, the binding signal is 10700 fluorescence intensity (a.u.). The value for “CCGCGACTCCACAGTTCACCGCGACACATGCCGCGCAGGCCGGAGTCACCTAGTGCAG” was 9990 fluorescence intensity (a.u.); that for “TCTAGGTCATGAGAGCGATCGTAAAGGCTTTTTTTCTATTCGGAGTCACCTAGTGCAG” was 9230 fluorescence intensity (a.u.). Consider “ACTCATAATATAACTTTGCTATTAATTAGGGGTATTTTGGCGGAGTCACCTAGTGCAG”, for which the binding signal is 8070 fluorescence intensity (a.u.). The result for “TATTTATAGCTAATTTATAGTCCGCTATTGTACCCGCTCTCGGAGTCACCTAGTGCAG” reads 9140 fluorescence intensity (a.u.).

The values are drawn from paper PMC7819943, “Rice protein-binding microarrays: a tool to detect cis-acting elements near promoter regions in rice”.
